Test results: patent US11466240B2, “Microfluidic platform for the rapid production of organoids/spheroids for compound screening” (THE GOVERNING COUNCIL OF THE UNIVERSITY OF TORONTO, priority 2017, dated 2022)

Test system: multi-cellular spheroids
Experiment: Penetration and washing out of dye in microgels with multi-cellular spheroids under flow

In the case of “Fluorescein isothiocyanate-dextran [FITC-dextran]”, the “reduction of mean fluorescence intensity in microgels with spheroids” value (after the first 20 min washing with dye-free medium, 0.1 mL/h) is reported as about 80% and the “reduction of mean fluorescence intensity in microgels with spheroids” value (during subsequent 50 min washing) is reported as about 10%.
